Results published in PMC12485133.
Results are given in words; binding and its absence hold for the method and conditions named. Some results given as binding are weak or reduced against the parent protein; the word gives no strength.

Sequences of proteins named here, by UniProt entry; tags and fusion partners are left off. A change or cut given only in a name is not applied to a line headed by its entry. Residues count along the entry.
UniProt P84077: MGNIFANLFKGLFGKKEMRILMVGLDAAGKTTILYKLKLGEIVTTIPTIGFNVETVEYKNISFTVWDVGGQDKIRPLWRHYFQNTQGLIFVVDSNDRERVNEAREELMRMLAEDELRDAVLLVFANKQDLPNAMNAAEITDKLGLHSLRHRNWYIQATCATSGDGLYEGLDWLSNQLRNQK
UniProt Q9QWY8, residues 339-451: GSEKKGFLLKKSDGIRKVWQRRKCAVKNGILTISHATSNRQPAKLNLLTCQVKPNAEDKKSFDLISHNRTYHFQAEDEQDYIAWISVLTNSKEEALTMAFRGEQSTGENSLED

Target: N-myristoylated human Arf1 bound to GTPγS, anchored on nanodiscs (myrArf1·GTPγS) (human) (UniProt P84077)
Experiment: NMR titration; 1H-13C methyl HMQC (and 1H-15N) spectra of labelled myrArf1·GTPγS with 2H or 1H PH, or of labelled PH with myrArf1, on MSPΔH5 nanodiscs (PC:PI(4,5)P2 95:5), ratio 1:1.2, 25 °C, 20 mM Tris-HCl pH 7.4, 150 mM NaCl, 1 mM MgCl2, 0.5 mM TCEP; CSPs, broadening, intensity ratios with 1H against 2H PH; both purified

binding: binds
Substance: ΔN14 ASAP1 PH domain, [339-451]ASAP1 (from UniProt Q9QWY8 339-451) (domain or fragment)
